PubChem BioAssay AID1259306, Sanger Institute | 2017
The whole screen tested 794 reagents; below is an unselected part. Over the whole deposit, 11 (1.4%) are marked active. 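Calls reflect knock-down alone; synergy scores play no part, so knock-downs synergising with a drug can be called no change.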 Unmarked entries are inactive. Not all columns of the deposit are shown. Not given: the amount of reagent, the time to read-out.

- Test: 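Kinases needed for viability and knock-downs that synergise with BYL719, cetuximab or trametinib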 (primary screen)
- Cell system: human SNU-C5 colorectal cancer cells
- Knock-down reagent: siRNA pool against human genes
- Conditions: DMSO vehicle alone, or one anchor drug: BYL719 at 1 µM, cetuximab at 5 µg/ml or trametinib at 10 nM, given 24 h into the assay
- Detection: 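Viability versus non-targeting pool averaged across replicates, given as fraction and robust z-score, and synergy scores for BYL719, cetuximab or trametinib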
- Reading the numbers: robust z-score, knock-down alone: higher = more viable cells
- Call rule: 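Called essential when the robust z-score for knock-down alone is below -3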
- Meaning of the calls: active = essential (knock-down alone); inactive = no change alone

The first 2 records, ahead of the listing:
| Gene | robust z-score, knock-down alone |
| --- | --- |
| RIPK2 | 0.989 |
| SRPK1 | 0.101 |

Main list, repeating the preview:
| Gene | robust z-score, knock-down alone |
| --- | --- |
| RIPK2 | 0.989 |
| SRPK1 | 0.101 |
| IRAK1 | -0.533 |
| PDK1 | -0.0381 |
| EPHA7 | -3.03 (active) |
| PFKL | -0.618 |
| PFKM | 0.5 |
| STK39 | -2.65 |
| NUP107 | -1.18 |
| DLG1 | 0.989 |
| LMBR1 | 0.622 |
| WEE1 | -2.25 |
| LYN | 0.989 |
| NUAK1 | -0.0367 |
| EPHB2 | -1.28 |
| ITPK1 | 0.989 |
| ETNK1 | 0.528 |
| RPS6KA6 | -0.0711 |
| MINK1 | 0.182 |
| DDR2 | 0.788 |
| PRKACB | 0.695 |
| MPP2 | -0.477 |
| MAPK10 | 0.989 |
| MYLK4 | -0.335 |
| SHPK | 0.982 |
| PIP5K1A | -1.79 |
| PRKAB1 | -1.71 |
| MAP4K4 | 0.654 |
| KRAS | 0.0877 |
| LRRK1 | 0.579 |
| MAP3K5 | 0.989 |
| MAPK3 | 0.989 |
| MOS | 0.369 |
| HCK | 0.531 |
| STK32C | 0.0697 |
| RBM10 | -0.861 |
| BRWD1 | -1.26 |
| STK33 | -0.523 |
| STK3 | 0.989 |
| FASTK | -0.541 |
| RET | 0.989 |
| PANK1 | 0.756 |
| MAP4K3 | -1.84 |
| CALM3 | 0.41 |
| TWF1 | 0.989 |
| TNIK | -0.363 |
| AURKB | -0.546 |
| GK | 0.0404 |
| NUAK2 | -0.536 |
| TAB1 | 0.989 |
